Assay results: PubChem BioAssay AID2551 (National Center for Advancing Translational Sciences (NCATS), 2010)
Out of some 310,000 compounds screened, about 17,000 (5.5%) were called active. Inconclusive means that the source gave no clear call. Such entries were picked first, then a sample of the others. Calls come from the whole dose curve; as a rule, active = well fitted inhibition curve with a large enough effect; inconclusive = small, poorly fitted or top-dose-only effect, or effect the other way; inactive = no such curve, though single readings can be large or run the other way. Potencies of inconclusive entries are doubtful fits and often do not repeat.

Sequences of proteins named here, by UniProt entry; tags and fusion partners are left off. A change or cut given only in a name is not applied to a line headed by its entry.
UniProt P51450: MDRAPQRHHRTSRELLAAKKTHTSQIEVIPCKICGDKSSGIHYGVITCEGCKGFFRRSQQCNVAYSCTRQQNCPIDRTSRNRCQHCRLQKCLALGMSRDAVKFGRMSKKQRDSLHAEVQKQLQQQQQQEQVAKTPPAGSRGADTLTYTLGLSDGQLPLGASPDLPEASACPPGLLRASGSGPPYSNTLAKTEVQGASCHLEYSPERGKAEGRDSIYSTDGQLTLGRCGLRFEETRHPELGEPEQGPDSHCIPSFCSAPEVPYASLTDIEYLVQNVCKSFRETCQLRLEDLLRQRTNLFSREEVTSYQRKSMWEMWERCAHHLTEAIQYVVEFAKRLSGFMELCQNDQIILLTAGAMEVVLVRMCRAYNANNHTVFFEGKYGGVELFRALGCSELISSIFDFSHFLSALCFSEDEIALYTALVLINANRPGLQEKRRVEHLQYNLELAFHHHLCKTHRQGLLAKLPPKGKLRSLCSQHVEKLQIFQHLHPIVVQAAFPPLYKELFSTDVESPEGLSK

Target: Nuclear receptor ROR-gamma (Mus musculus) (UniProt P51450)
Assay: qHTS for inhibitors of ROR gamma transcriptional activity; note: nearly all actives have a fitted effect of over 60% in size
Conditions: Drosophila S2 Gal4-RORgamma UAS-luciferase reporter, 20 h; activity change, negative = inhibition: at 53.6 µM (top of the series)
Method in brief: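 Using a luciferase readout, inhibitors were identified by reduced reporter activity in Drosophila cells coexpressing a copper-inducible Gal4–ROR gamma fusion and UAS-driven Photinus luciferase, incubated 20 hr after 700 uM copper sulfate.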
% is set by controls: 0 for no effect and ±100 for the full control effect; potency is the fitted concentration of half-maximal effect.

Potency, inconclusive:
Cc1[nH]c(-c2ccc(F)cc2)cc1C(=O)N1CCN(c2ccc(Cl)cc2)CC1 35.5 µM [activator, single point]
CCOC(=O)C1=C(C)N(Cc2ccccc2)C(=O)NC1c1ccc(OC)cc1 (centres undefined) 12.6 µM [activator, partial curve]
O=C(C1CCC1)N1CCc2cc(S(=O)(=O)NCCN3CCN(c4ccccc4F)CC3)ccc21 17.8 µM [activator, single point]
CC(C(=O)c1ccc(Br)cc1)[n+]1cccc2ccccc21 (centres undefined) 20 µM [activator, single point]
COc1cccc(NC(=O)C2CCN(S(=O)(=O)c3ccc4c(c3)NC(=O)C(C)S4)CC2)c1 (centres undefined) 12.6 µM [activator, single point]
Cc1ccc(NC(=O)/C=C/c2ccc([N+](=O)[O-])s2)cc1 5.62 µM [inhibitor, partial curve]
CCc1nnc2n1N=C(c1ccc(-c3cc(Cl)ccc3Cl)o1)CS2 0.447 µM [inhibitor, single point]
Cc1onc(-c2ccccc2)c1C(=O)NCc1ccc2c(c1)OCO2 8.91 µM [inhibitor, partial curve, poor fit]
CC1=C(c2ccc(F)cc2)[N+](=O)C(C)(C)N1[O-] 6.31 µM [inhibitor, partial curve]
CC(=O)Nc1ccc(/C(C)=N\NC(=O)c2ccc(-c3ccccc3)cc2)cc1 22.4 µM [inhibitor, single point]
S=C(NCCN1CCCCC1)Nc1ccc(Br)cc1 15.8 µM [inhibitor, single point]
CCOC(=O)N1CCN(S(=O)(=O)c2ccc(C(=O)Nc3sc4c(c3C(N)=O)CCN(CC)C4)cc2)CC1 17.8 µM [inhibitor, single point]
CCOC(=O)N1CCN(c2nc(-c3cccs3)cc(C(F)(F)F)n2)CC1 0.562 µM [activator, partial curve, poor fit]
O=C(COC(=O)/C=C/c1ccccc1Cl)NCCc1ccc(Cl)cc1Cl 7.08 µM [inhibitor, full curve, poor fit]
CCOC(=O)C1=C(CC)OC(N)=C(C#N)C1c1ccc(NC(C)=O)cc1 (centres undefined) 14.1 µM [activator, single point]
Cc1cccc(NS(=O)(=O)c2ccc3c(c2)oc(=O)n3C)c1C 7.08 µM [activator, full curve]
Cc1ccccc1N1C(=O)CC1(C#N)c1ccc(OCc2ccccc2)cc1 (centres undefined) 11.2 µM [activator, single point]
CC(C)Oc1ccc(CC(=O)NNC(=S)Nc2ccc(Br)cc2)cc1 7.94 µM [inhibitor, partial curve]
O=C(Nc1ccncc1)c1ccc2c(c1)C(=O)N(C1CCCCC1)C2=O 35.5 µM [inhibitor, single point]
COc1c(OC(C)=O)ccc(/C=C/c2ccc3ccccc3n2)c1[N+](=O)[O-] 11.2 µM [activator, partial curve]
CC(=O)Nc1ccc(S(=O)(=O)NCCOc2ccc(Cl)cc2C)cc1 6.31 µM [inhibitor, full curve, poor fit]
Cn1c(N)c(C(C[N+](=O)[O-])c2c(F)cccc2Cl)c(=O)n(C)c1=O (centres undefined) 12.6 µM [inhibitor, partial curve, poor fit]
COc1cc(C2NC(=O)NC(C)=C2C(=O)OC2CCCC(C)C2)cc(Br)c1O (centres undefined) 12.6 µM [activator, single point]
O=C(COC(=O)C1(c2cccc(F)c2)CCCC1)NCc1ccc2c(c1)OCO2 17.8 µM [activator, single point]
Cc1ccc(-c2nn3c(C)nnc3s2)cc1NC(=O)COc1ccc(Cl)cc1 22.4 µM [activator, single point]
COC(=O)CN1C(=O)C2(C(C#N)=C(N)Oc3c2c(C)nn3-c2ccccc2)c2ccccc21 (centres undefined) 35.5 µM [inhibitor, single point]
Cc1ccc(C)c(NC(=O)CCN2CCc3ccccc3C2)c1 0.0355 µM [activator, full curve, poor fit]
Cc1ccc(C2N(c3cccc(Cl)c3)C(=O)N3CCCN23)cc1 (centres undefined) 6.31 µM [activator, single point]

10 successive records from above, for reference:
Potency, inconclusive:
O=C(COC(=O)/C=C/c1ccccc1Cl)NCCc1ccc(Cl)cc1Cl 7.08 µM [inhibitor, full curve, poor fit]
CCOC(=O)C1=C(CC)OC(N)=C(C#N)C1c1ccc(NC(C)=O)cc1 (centres undefined) 14.1 µM [activator, single point]
Cc1cccc(NS(=O)(=O)c2ccc3c(c2)oc(=O)n3C)c1C 7.08 µM [activator, full curve]
Cc1ccccc1N1C(=O)CC1(C#N)c1ccc(OCc2ccccc2)cc1 (centres undefined) 11.2 µM [activator, single point]
CC(C)Oc1ccc(CC(=O)NNC(=S)Nc2ccc(Br)cc2)cc1 7.94 µM [inhibitor, partial curve]
O=C(Nc1ccncc1)c1ccc2c(c1)C(=O)N(C1CCCCC1)C2=O 35.5 µM [inhibitor, single point]
COc1c(OC(C)=O)ccc(/C=C/c2ccc3ccccc3n2)c1[N+](=O)[O-] 11.2 µM [activator, partial curve]
CC(=O)Nc1ccc(S(=O)(=O)NCCOc2ccc(Cl)cc2C)cc1 6.31 µM [inhibitor, full curve, poor fit]
Cn1c(N)c(C(C[N+](=O)[O-])c2c(F)cccc2Cl)c(=O)n(C)c1=O (centres undefined) 12.6 µM [inhibitor, partial curve, poor fit]
COc1cc(C2NC(=O)NC(C)=C2C(=O)OC2CCCC(C)C2)cc(Br)c1O (centres undefined) 12.6 µM [activator, single point]

Next part:

Potency, active:
COC(=O)c1ccccc1Sc1ncnc2onc(C)c12 11.2 µM
C=CCOc1c(Cl)cc(CNc2nccs2)cc1OC 5.62 µM
CC(=O)c1cccc(NC(=O)CC2S/C(=N/N=C3CCCCCC3)NC2=O)c1 (centres undefined) 10 µM
C=CCNC(=S)NNc1nc(Nc2ccccc2)nc(N2CCCCC2)n1 3.98 µM
O=[N+]([O-])c1cccc(/C=N\N=C2c3ccccc3-c3ccccc32)c1O 10 µM
CC1CCCC(NC(=O)NC(=O)CCl)C1C (centres undefined) 3.16 µM
Cc1cccc(Cn2c(O)c(N=NC(=S)Nc3ccccc3F)c3ccccc32)c1 3.16 µM

Activity change, negative = inhibition, inactive:
CC(=O)N1CCOc2ccc(S(=O)(=O)N3CCC(C(=O)NCc4ccc(F)cc4)CC3)cc21 3.34%
N#Cc1cnn2c1nc(N1CCCCC1)c1ccccc12 -18.6%
O=C(Nc1cc(S(=O)(=O)N2CCCCC2)ccc1O)c1ccccc1NS(=O)(=O)c1ccc(F)cc1 40.1%
O=C(NC1CCCC1)C1CCN(C(=O)c2cc(Cl)ccc2Cl)CC1 0.556%
O=C(O)CCCNS(=O)(=O)/C=C/c1ccccc1 3.95%
CN(C)C(CNC(=O)C1CCN(S(=O)(=O)c2cccc(Cl)c2Cl)CC1)c1ccccc1 (centres undefined) 32.8%
COc1ccccc1CN(C)CC(=O)NC1CCCc2ccccc21 (centres undefined) -5.02%
CN(C(=O)c1cc(-c2ccccc2)on1)C1CCCCC1 -28.4%
CC(C)c1nnc(NC(=O)COc2ccc3c(c2)OCO3)s1 -1.96%
